In PMC7956476, “Quinoline Functionalized Schiff Base Silver (I) Complexes: Interactions with Biomolecules and In Vitro Cytotoxicity, Antioxidant and Antimicrobial Activities” (Molecules, 2021) one finds CT-DNA-EB-Complex n data, which are given here for 2 molecules.

For the data set, the system named is CT-DNA-EB adduct. In words: Fluorescence competitive displacement of ethidium bromide from CT-DNA. Set-up: species or system calf. Conditions: number of binding sites. The text has this:
The Stern–Volmer plot approach was used based on the fact that the Stern–Volmer plots for Q1–Q15 (Figure 5c), were linear an indication of only one mechanism for the quenching fluorescence, i.e., either dynamic or static. […] (1) Ksv=Kqτo where Ksv, Kq, and τo represent Stern–Volmer quenching constant, bimolecular quenching constant, and an average lifetime of the fluorophore in the absence of the quencher, respectively. τₒ normally takes about 10^−8 s in biomacromolecules.
The double-logarithmic Equation (2) was used in determining the binding constant of complexes Q1–Q15 and CT-DNA. (2) logFo−F/F=logKb+n logQ
A competitive displacement study was carried out using fluorescence spectroscopy between CT-DNA pre-treated with ethidium bromide (EB) and complexes Q1–Q15 to establish the complexes′ actual mode of binding to CT-DNA. […] The competitive luminescence displacement assay was done using a modified method. Pre-treated 15 µM solution of EB with 15 µM of CT-DNA was prepared in a phosphate buffer of pH 7.2 and left to equilibrate for 30 min. […] The fluorescence quenching ability of CT-DNA bound EB by the complexes were recorded in the wavelength range of 530–700 nm with an excitation wavelength at 525 nm at 25 °C. […]
A Stern–Volmer (Equation (6)) was used to evaluate the CT-DNA-EB fluorescence quenching of the complexes. […]

With `[Ag+].[O-][Cl+3]([O-])([O-])[O-]` [AgClO4, silver perchlorate, reference compound], the CT-DNA-EB-Complex n is 1.26.
To `O=[N+]([O-])[O-].[Ag+]` [AgNO3, silver nitrate, reference compound] belongs 1.24.
